These are yes or no findings as the source states them, for the method shown. Some binding calls cover weakened binding; strength is not graded here. Tags and fused reporters may be left off the sequences shown.
What was measured:
[1] = target: cI_E34P fusion with the N-terminal domain of human ASF1B, ASF1BN (residues 1 to 156) (human) (UniProt Q9NVP2); assay: two-hybrid; qB2H v4 library of 1,134 N-terminal extension-linker-ip4_mutG peptides in SB39; short batch selection (4.5 to 5 h) with kanamycin up to 348 μg/ml; NGS enrichment
[2] = target: cI_E34P fusion with the N-terminal domain of human ASF1B, ASF1BN (residues 1 to 156) (human) (UniProt Q9NVP2); assay: two-hybrid; qB2H v4 library of 1,134 N-terminal extension-linker-ip4_mutG peptides in SB39; turbidostat selection 24 and 32 h with kanamycin 209 μg/ml; NGS enrichment

The chains behind the UniProt entries cited, without tags or fusion partners. Residues count along the entry.
UniProt Q9NVP2, residues 1-156: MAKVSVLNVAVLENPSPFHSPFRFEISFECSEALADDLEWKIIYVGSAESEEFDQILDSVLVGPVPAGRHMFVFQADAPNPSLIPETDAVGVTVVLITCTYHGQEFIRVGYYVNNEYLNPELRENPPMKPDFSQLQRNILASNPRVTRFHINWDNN

| Binder | binding [1] | binding [2] |
| --- | --- | --- |
| SAAARWAAALAALPGSKWARLARRTAGAGGVTLNGAG (designed binder) | binds | – |
| SAAERFAAALAALPGSKWARLARRTAGAGGVTLNGAG (designed binder) | binds | – |
| AAEEAARFAALLAALPGSKWARLARRTAGAGGVTLNGAG (designed binder) | – | binds |
| AEEEAARFAALLAALPGSKWARLARRTAGAGGVTLNGAG (designed binder) | – | binds |

More lines, now with the values ahead:

| binding [1] | binding [2] | Binder |
| --- | --- | --- |
| – | binds | AAEEQAAFDALLAALPGSKWARLARRTAGAGGVTLNGAG (designed binder) |
| binds | – | AAAERARFAALLAKLPGSKWARLARRTAGAGGVTLNGAG (designed binder) |

Reference: paper PMC13199644, “Optimized Quantitative Bacterial Two-Hybrid (qB2H) for Protein–Protein Interaction Assessment” (Computational and Structural Biotechnology Journal, 2026)
